Experimental data: PubChem BioAssay AID686937 (Drosophila RNAi Screening Center, 2013)
The screen tested about 23,000 reagents; this is an unselected part of those that have a named target and a result. 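Reduced-secretion tags in replicate 1 do not always agree with the z-scores; no criterion for assigning the tags was given.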 Not all columns of the deposit are shown. Not stated in the record: the amount of reagent.

Assay: 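Knock-downs that reduce output of a secreted reporter enzyme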 (primary screen)
System: Drosophila S2 cells expressing secreted horseradish peroxidase
Knock-down reagent: long dsRNA against Drosophila genes
Duration: about 5.5 days (5 days dsRNA, then 12 h reporter induction)
Conditions: reporter expression induced after 5 days of dsRNA, read 12 h later; inducer not stated
Measurement: 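Chemiluminescent measurement of peroxidase in the medium 12 h after reporter induction, following 5 days of dsRNA, given as a z-score per plate; higher means more secretion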
Reading the numbers: z-score: higher = more reporter secreted into medium

{"Target gene": "CG12831", "DRSC id": "DRSC06179", "z-score, replicate 1": 0.2}
{"Target gene": "corto", "DRSC id": "DRSC12040", "z-score, replicate 1": -0.24}
{"Target gene": "corto", "DRSC id": "DRSC12375", "z-score, replicate 1": 0.06}
{"Target gene": "corto", "DRSC id": "DRSC22279", "z-score, replicate 1": -1.01}
{"Target gene": "Irc", "DRSC id": "DRSC16454", "z-score, replicate 1": 0.16}
{"Target gene": "CG43366", "DRSC id": "DRSC04857", "z-score, replicate 1": 0.45}
{"Target gene": "CG43366", "DRSC id": "DRSC04864", "z-score, replicate 1": 0.21}
{"Target gene": "ppk18", "DRSC id": "DRSC02216", "z-score, replicate 1": 0.4}
{"Target gene": "ppk18", "DRSC id": "DRSC02217", "z-score, replicate 1": 0.13}
{"Target gene": "CG17826", "DRSC id": "DRSC10289", "z-score, replicate 1": 0.44}
{"Target gene": "wus", "DRSC id": "DRSC20278", "z-score, replicate 1": 0.39}
{"Target gene": "wfs1", "DRSC id": "DRSC15676", "z-score, replicate 1": 0.31}
{"Target gene": "CG17404", "DRSC id": "DRSC15234", "z-score, replicate 1": 0.42}
{"Target gene": "CG42241 (retired record)", "DRSC id": "DRSC04007", "z-score, replicate 1": 0.22}
{"Target gene": "f", "DRSC id": "DRSC19174", "z-score, replicate 1": 0.58}
{"Target gene": "f", "DRSC id": "DRSC19516", "z-score, replicate 1": -0.2}
{"Target gene": "f", "DRSC id": "DRSC20331", "z-score, replicate 1": -0.08}

A portion taken from the entries so far, as a working copy:
{"Target gene": "corto", "DRSC id": "DRSC12375", "z-score, replicate 1": 0.06}
{"Target gene": "corto", "DRSC id": "DRSC22279", "z-score, replicate 1": -1.01}
{"Target gene": "Irc", "DRSC id": "DRSC16454", "z-score, replicate 1": 0.16}
